Reference: the supplement of paper PMC12067093, “Discovery and optimisation of a covalent ligand for TRIM25 and its application to targeted protein ubiquitination” (Chemical Science, 2025)
This is one part of the list.

The chains behind the UniProt entries cited, without tags or fusion partners. Where a name states a change or a piece, a line headed by the entry shows the natural chain unless it says otherwise.
UniProt Q66K74: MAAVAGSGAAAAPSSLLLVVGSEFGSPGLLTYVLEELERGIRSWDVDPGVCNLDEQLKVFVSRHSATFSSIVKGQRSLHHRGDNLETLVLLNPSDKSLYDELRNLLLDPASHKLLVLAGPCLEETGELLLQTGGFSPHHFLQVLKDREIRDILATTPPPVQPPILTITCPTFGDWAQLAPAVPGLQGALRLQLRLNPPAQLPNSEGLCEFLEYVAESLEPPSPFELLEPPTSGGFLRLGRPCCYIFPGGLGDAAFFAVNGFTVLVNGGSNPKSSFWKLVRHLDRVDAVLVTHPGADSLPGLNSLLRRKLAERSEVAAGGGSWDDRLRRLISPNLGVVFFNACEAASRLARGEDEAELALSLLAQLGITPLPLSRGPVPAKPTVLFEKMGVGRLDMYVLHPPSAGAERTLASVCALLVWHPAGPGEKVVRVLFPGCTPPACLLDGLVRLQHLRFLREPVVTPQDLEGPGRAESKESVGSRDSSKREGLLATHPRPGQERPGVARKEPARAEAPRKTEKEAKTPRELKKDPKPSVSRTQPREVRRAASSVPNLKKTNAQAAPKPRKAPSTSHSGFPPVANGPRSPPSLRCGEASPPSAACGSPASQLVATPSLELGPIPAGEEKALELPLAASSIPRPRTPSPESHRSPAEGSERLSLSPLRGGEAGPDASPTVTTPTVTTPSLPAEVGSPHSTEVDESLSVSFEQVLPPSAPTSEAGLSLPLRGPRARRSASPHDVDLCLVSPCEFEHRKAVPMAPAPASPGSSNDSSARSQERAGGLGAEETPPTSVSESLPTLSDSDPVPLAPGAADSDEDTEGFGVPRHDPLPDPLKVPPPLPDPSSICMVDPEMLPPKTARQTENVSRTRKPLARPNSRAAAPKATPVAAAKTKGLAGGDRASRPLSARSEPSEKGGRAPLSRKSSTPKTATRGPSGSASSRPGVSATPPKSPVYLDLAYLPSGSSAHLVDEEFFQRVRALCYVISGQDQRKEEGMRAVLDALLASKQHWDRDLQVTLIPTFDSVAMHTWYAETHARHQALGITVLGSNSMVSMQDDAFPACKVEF
UniProt Q13164: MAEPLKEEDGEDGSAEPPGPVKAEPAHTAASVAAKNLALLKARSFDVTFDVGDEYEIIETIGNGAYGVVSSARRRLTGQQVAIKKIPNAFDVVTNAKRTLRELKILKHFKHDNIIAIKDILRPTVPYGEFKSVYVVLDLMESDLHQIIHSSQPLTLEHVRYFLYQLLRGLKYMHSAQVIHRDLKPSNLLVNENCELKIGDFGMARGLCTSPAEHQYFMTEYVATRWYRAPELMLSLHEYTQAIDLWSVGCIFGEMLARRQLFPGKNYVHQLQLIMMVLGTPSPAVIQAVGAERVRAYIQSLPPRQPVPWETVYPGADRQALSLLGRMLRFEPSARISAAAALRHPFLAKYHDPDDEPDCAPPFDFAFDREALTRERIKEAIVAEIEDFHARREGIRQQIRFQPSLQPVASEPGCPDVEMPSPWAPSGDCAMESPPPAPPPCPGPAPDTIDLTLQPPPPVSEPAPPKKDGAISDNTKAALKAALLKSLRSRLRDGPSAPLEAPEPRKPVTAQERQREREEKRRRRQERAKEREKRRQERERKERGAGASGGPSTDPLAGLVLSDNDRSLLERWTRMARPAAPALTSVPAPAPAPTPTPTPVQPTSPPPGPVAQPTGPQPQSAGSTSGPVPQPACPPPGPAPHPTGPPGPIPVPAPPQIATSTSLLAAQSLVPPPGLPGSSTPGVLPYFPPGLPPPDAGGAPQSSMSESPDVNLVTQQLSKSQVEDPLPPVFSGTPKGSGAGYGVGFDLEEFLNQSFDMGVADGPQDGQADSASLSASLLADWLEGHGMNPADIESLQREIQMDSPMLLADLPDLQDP
UniProt Q9P2G4: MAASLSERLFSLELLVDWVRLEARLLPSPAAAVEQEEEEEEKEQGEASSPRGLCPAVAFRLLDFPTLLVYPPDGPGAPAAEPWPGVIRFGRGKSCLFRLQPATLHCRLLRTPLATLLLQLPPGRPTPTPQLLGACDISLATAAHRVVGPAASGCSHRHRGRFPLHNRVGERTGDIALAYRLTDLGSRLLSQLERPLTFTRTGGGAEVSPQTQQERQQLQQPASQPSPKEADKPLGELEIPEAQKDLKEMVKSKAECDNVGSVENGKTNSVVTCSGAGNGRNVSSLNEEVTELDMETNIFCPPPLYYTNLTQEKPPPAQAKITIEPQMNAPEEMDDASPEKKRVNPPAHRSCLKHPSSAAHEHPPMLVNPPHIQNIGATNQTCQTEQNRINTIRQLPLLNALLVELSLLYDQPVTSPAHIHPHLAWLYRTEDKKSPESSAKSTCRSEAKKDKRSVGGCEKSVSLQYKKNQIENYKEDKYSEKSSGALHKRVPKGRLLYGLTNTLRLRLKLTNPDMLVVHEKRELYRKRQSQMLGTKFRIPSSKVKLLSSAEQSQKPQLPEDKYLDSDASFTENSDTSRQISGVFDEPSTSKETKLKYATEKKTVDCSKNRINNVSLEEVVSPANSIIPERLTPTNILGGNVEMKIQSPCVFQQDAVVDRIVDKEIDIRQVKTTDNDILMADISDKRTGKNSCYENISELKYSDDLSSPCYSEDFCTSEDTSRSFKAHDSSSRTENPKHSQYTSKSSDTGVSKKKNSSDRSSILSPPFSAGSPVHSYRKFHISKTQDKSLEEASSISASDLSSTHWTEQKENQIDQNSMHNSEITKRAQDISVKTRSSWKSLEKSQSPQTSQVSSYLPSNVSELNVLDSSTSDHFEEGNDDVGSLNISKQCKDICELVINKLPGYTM
UniProt Q9H0U3: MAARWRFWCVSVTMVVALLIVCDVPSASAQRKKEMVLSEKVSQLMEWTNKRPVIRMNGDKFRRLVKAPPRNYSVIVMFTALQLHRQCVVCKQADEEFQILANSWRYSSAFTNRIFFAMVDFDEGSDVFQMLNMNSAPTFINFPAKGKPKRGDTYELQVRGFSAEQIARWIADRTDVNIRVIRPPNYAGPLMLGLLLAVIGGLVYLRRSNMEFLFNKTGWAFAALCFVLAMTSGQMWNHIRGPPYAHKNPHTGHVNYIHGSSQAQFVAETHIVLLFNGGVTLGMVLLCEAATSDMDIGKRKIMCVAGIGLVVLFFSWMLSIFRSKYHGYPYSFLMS
UniProt Q8WXG6, whole entry, looked up: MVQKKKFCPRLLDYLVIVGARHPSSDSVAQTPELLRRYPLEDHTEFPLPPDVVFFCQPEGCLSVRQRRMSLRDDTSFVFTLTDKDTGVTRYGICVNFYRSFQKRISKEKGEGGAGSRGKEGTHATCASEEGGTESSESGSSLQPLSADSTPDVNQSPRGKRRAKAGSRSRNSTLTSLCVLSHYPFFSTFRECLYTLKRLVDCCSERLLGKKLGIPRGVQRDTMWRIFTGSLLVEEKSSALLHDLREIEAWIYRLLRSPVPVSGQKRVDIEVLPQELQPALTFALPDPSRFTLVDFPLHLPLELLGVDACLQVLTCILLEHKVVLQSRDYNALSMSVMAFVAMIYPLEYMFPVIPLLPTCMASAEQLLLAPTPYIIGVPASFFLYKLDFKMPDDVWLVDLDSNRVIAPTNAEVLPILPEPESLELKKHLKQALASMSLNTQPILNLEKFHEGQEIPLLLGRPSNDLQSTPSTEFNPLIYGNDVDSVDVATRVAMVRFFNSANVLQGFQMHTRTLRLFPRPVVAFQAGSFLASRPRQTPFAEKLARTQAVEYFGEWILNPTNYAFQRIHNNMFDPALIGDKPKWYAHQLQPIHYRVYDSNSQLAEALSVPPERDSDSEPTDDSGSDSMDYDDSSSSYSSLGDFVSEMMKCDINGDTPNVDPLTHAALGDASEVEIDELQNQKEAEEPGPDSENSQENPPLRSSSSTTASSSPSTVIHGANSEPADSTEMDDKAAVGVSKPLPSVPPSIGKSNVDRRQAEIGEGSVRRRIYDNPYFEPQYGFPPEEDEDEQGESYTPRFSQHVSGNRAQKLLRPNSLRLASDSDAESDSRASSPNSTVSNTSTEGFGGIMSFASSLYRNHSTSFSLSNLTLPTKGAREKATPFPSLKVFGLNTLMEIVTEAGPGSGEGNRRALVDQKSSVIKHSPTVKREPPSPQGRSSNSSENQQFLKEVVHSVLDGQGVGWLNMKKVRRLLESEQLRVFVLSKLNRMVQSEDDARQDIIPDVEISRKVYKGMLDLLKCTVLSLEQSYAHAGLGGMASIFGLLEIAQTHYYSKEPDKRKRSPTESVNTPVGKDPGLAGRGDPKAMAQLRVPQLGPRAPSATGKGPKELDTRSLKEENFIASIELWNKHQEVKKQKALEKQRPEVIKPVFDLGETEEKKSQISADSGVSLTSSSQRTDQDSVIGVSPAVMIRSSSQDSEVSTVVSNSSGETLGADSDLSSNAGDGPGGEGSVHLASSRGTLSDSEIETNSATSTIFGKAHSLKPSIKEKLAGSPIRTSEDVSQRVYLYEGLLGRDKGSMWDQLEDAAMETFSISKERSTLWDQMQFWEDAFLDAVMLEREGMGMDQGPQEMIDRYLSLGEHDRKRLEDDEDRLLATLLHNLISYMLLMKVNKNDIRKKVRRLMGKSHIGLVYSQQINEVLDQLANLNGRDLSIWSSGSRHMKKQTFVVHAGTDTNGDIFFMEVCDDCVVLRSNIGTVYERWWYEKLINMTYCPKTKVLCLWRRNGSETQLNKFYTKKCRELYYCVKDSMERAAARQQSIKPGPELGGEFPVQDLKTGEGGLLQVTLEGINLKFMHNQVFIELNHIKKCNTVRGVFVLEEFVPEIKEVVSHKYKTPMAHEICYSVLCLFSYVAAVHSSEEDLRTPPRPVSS
UniProt Q00266: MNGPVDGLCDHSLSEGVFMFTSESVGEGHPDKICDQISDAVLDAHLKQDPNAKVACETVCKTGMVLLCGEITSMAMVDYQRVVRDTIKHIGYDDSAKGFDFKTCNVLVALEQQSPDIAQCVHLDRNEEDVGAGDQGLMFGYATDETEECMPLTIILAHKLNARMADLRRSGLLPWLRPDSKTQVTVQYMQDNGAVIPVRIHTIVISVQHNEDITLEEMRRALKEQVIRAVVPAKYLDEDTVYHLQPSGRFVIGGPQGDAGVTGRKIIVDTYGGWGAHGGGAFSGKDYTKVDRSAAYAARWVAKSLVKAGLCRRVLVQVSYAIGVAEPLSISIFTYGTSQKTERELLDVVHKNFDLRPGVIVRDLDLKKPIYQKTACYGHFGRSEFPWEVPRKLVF
UniProt O15264: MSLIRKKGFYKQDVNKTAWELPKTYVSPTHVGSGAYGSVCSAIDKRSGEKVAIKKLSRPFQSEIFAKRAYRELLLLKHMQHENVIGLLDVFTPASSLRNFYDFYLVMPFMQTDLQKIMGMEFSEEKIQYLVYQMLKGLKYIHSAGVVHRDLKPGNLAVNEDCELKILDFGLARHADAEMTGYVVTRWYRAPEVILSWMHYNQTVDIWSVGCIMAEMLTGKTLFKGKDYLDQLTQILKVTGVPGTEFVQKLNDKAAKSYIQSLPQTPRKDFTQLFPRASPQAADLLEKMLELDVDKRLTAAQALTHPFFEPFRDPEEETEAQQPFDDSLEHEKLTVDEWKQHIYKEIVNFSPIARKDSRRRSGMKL
UniProt P28482, whole entry, looked up: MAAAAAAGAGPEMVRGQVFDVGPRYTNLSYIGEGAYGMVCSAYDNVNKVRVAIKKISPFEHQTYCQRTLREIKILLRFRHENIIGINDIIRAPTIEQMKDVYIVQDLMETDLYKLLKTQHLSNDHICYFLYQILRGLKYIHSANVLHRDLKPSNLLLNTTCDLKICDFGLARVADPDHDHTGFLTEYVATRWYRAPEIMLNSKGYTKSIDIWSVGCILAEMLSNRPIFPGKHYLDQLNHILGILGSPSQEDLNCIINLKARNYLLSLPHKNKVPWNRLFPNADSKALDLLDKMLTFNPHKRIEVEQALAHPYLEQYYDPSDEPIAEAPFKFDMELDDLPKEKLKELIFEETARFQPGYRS
UniProt Q9BQ69: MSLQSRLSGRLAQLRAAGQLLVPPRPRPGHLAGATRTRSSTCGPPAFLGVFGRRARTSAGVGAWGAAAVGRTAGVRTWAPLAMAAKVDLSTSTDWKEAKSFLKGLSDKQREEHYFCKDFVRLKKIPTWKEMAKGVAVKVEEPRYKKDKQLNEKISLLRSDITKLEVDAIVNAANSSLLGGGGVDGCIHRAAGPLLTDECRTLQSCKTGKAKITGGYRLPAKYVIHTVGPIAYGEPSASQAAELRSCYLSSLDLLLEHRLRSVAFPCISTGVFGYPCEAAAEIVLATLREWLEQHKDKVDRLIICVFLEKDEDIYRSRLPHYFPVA
UniProt Q9NR56: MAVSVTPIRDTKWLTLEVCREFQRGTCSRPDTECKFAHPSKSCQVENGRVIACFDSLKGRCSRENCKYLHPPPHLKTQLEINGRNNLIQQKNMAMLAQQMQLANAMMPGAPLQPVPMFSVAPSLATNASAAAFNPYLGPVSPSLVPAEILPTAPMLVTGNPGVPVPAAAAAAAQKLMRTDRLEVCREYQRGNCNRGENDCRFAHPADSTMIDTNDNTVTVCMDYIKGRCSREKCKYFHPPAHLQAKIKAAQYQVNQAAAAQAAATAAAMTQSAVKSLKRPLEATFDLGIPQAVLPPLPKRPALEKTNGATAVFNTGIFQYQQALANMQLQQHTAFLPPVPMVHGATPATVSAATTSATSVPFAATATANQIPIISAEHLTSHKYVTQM

Compound: CC1Cc2ccccc2N1C(=O)C1CCCN(C1)C(=O)CCl (mixture of isomers) [TRIM25 ligand 11 (diastereomer mixture)]
Assay: probe-labelled cysteine peptide fold change vs DMSO (competition) (log2 fold change); higher = less target engagement (more negative = stronger competition)
Settings: THP-1, incubation time: 4 h
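Further: competitive chemoproteomic profiling in live THP-1 cells with an iodoacetamide desthiobiotin (IA-DTB) probe, comparing probe-labelled peptide intensities in compound-treated cells against DMSO-treated controls.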

Target | probe-labelled cysteine peptide fold change (10 µM) | probe-labelled cysteine peptide fold change (50 µM)
MAP1S_Q66K74_435+440_VLFPGCTPPACLLDGLVR (UniProt Q66K74) | -0.121 | -0.0707
MASP1_P48740-2_630_LPVVPHAECK (UniProt P48740) | 0.322 | 0.233
MAPK7_Q13164_359_YHDPDDEPDCAPPFDFAFDR (UniProt Q13164) | 0.0359 | -0.0609
MAK16_Q9BXY0_39_NEYSLTGLCNR (UniProt Q9BXY0) | -0.0399 | 0.00588
MAPK14_Q16539_162_PSNLAVNEDCELK (UniProt Q16539) | 0.251 | 0.283
LUC7L_Q9NQ29_97_DLFFELDAMDHLESFIAECDRR (UniProt Q9NQ29) | 0.104 | 0.00511
MACO1_Q8N5G2_315_EDSCTASSK (UniProt Q8N5G2) | -0.181 | -0.313
MAP10_Q9P2G4_273_TNSVVTCSGAGNGR (UniProt Q9P2G4) | 0.0477 | -0.188
MAPK12_P53778_42_DLQPVGSGAYGAVCSAVDGR (UniProt P53778) | 0.00717 | -0.322
MAGT1_Q9H0U3_87_QCVVCK (UniProt Q9H0U3) | 0.0455 | 0.323
MARK3_P27448_213_LDTFCGSPPYAAPELFQGK (UniProt P27448) | 0.0441 | 0.0177
MAPK3_P27361_82_KISPFEHQTYCQR (UniProt P27361) | 0.0969 | -0.075
MADD_Q8WXG6_1489_LINMTYCPK (UniProt Q8WXG6) | 0.148 | -0.121
MAT1A_Q00266_34_ICDQISDAVLDAHLK (UniProt Q00266) | 0.555 | 0.255
MAP4K1_Q92918_428_CASGPPPNSPR (UniProt Q92918) | 0.0564 | 0.0226
LY75_O60449_110_CEHHSLYGAAR (UniProt O60449) | 0.335 | -0.00851
MAPK13_O15264_162_DLKPGNLAVNEDCELK (UniProt O15264) | 0.023 | -0.114
LY75_O60449_1422_VTWYEALNMCSQSGGHLASVHNQNGQLFLEDIVKR (UniProt O60449) | 0.213 | 0.119
MAPK1_P28482_254_HYLDQLNHILGILGSPSQEDLNCIINLK (UniProt P28482) | 0.0567 | -0.0188
MACROD1_Q9BQ69_246_SCYLSSLDLLLEHR (UniProt Q9BQ69) | -0.0302 | -0.0149

Target | probe-labelled cysteine peptide fold change (10 µM) | probe-labelled cysteine peptide fold change (50 µM)
MADD_Q8WXG6_1521_ELYYCVK (UniProt Q8WXG6) | -0.0221 | 0.0787
LY75_O60449_597_AVTFSNWNFLEPASPGGCVAMSTGK (UniProt O60449) | -0.491 | -0.356
LYN_P07948_219_QADGLCR (UniProt P07948) | -0.0504 | 0.114
LYRM7_Q5U5X0_97_KDLLVENVPYCDAPTQK (UniProt Q5U5X0) | -0.0925 | -0.25
MBNL1_Q9NR56_200_GENDCR (UniProt Q9NR56) | -0.0763 | 0.0299
MAP7D3_Q8IWC1_264_CTSDELR (UniProt Q8IWC1) | -0.0917 | -0.147
LUC7L3_O95232_40_YYLCGFCPAELFTNTR (UniProt O95232) | 0.0328 | 0.116
MAP3K3_Q99759_411_EVSALECEIQLLK (UniProt Q99759) | -0.0123 | 0.113
MAP3K4_Q9Y6R4_752_LFCDIAGMLLK (UniProt Q9Y6R4) | 0.073 | 0.307
MAEA_Q7L5Y9_136_CGYYNTAVK (UniProt Q7L5Y9) | -0.0355 | 0.121
MATR3_P43243_552_EDAMAMVDHCLK (UniProt P43243) | 0.0586 | 0.0873
MAN2B1_O00754_273_NLCWDVLCVDQPLVEDPR (UniProt O00754) | -0.0362 | -0.232
LYST_Q99698_2127_LTGSLGCSIDR (UniProt Q99698) | 0.061 | 0.105
MAP3K20_Q9NYL2_242_SFAELLHQCWEADAK (UniProt Q9NYL2) | 0.0196 | -0.0121
MACF1_Q9UPN3_7133_QVAQCK (UniProt Q9UPN3) | -0.0489 | 0.114
MARS_P56192_408_FVEGVCPFCGYEEARGDQCDK (UniProt P56192) | -0.101 | 0.00823
MBD4_O95243_324_SLSSGSNFCSEQK (UniProt O95243) | 0.128 | 0.164
MAT2A_P31153_34_ICDQISDAVLDAHLQQDPDAK (UniProt P31153) | 0.0179 | -0.196
MACF1_Q9UPN3_4325_DASSCQEQLDEFRK (UniProt Q9UPN3) | 0.0551 | -0.0169

Given in CSV form: part of the list above
Target,probe-labelled cysteine peptide fold change (10 µM),probe-labelled cysteine peptide fold change (50 µM)
MAK16_Q9BXY0_39_NEYSLTGLCNR (UniProt Q9BXY0),-0.0399,0.00588
MAT1A_Q00266_34_ICDQISDAVLDAHLK (UniProt Q00266),0.555,0.255
LY75_O60449_597_AVTFSNWNFLEPASPGGCVAMSTGK (UniProt O60449),-0.491,-0.356
